Laboratory results reported in the supplement of paper PMC10849652.
The list shows a part of the results.

Chains of the proteins cited; added tags and fusions are not shown. Lines headed by an entry give the natural chain unless they say otherwise; changes in a name come on top.
UniProt Q6P1K2: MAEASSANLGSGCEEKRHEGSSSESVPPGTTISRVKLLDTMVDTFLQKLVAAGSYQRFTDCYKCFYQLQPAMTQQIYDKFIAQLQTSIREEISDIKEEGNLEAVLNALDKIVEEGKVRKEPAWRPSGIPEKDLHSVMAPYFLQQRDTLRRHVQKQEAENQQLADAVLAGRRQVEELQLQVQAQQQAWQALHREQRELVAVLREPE
UniProt P28340: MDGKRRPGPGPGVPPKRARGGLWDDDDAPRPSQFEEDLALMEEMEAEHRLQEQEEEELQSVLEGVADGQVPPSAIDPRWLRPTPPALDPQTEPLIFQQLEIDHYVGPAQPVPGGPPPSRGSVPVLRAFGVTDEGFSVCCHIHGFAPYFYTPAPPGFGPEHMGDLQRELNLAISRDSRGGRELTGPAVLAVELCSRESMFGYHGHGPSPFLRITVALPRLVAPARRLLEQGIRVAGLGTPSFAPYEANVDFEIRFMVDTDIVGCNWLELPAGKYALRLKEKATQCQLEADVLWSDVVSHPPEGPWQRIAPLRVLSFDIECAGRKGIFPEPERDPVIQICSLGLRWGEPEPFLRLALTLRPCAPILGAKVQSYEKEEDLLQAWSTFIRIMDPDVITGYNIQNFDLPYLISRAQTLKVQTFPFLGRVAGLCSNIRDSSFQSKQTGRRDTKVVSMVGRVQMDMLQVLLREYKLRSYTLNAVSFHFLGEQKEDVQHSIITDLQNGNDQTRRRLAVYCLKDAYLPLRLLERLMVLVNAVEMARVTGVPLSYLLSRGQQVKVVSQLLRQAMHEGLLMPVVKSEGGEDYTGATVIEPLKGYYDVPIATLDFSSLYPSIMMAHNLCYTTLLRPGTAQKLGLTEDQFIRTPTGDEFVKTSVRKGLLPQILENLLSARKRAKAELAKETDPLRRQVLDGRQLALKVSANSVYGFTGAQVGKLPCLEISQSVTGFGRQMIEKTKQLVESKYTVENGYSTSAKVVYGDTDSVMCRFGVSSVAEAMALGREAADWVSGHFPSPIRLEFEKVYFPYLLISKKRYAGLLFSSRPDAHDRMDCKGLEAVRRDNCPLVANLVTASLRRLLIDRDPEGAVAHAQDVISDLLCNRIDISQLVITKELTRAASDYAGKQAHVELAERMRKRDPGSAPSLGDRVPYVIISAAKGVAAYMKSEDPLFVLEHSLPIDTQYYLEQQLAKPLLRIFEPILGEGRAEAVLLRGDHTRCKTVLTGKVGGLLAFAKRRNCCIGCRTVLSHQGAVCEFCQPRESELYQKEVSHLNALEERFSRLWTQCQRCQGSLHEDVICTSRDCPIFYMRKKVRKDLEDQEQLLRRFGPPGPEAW
UniProt Q9HAB8: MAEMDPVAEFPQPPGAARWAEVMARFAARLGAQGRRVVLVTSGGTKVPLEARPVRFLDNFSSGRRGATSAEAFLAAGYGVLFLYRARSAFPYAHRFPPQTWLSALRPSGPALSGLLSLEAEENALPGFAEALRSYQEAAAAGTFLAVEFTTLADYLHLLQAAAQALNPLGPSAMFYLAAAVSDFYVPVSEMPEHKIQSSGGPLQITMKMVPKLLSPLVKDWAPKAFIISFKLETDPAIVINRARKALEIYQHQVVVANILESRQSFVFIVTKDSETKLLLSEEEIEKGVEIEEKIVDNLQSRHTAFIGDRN
UniProt Q8TF01: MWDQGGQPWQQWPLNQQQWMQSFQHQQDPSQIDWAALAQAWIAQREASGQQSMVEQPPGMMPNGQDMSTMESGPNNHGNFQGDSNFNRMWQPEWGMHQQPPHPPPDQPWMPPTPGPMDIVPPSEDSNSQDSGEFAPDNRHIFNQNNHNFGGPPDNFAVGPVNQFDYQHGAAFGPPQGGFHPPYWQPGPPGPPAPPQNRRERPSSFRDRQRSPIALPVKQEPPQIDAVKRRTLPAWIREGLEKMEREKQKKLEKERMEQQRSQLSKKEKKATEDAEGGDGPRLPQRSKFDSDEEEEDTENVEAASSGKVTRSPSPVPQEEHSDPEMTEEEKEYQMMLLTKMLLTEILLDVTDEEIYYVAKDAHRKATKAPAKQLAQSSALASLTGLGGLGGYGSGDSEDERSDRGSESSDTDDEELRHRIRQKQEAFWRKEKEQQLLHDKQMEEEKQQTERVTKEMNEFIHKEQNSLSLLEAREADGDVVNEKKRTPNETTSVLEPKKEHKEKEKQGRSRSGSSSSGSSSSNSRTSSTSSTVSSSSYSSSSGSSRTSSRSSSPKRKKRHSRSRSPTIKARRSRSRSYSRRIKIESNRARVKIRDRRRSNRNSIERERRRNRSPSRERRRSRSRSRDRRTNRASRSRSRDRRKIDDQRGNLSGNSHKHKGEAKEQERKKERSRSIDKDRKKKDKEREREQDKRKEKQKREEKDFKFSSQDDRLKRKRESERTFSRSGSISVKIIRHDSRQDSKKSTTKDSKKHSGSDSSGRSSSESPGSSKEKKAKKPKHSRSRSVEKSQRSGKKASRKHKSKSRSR
UniProt P56282: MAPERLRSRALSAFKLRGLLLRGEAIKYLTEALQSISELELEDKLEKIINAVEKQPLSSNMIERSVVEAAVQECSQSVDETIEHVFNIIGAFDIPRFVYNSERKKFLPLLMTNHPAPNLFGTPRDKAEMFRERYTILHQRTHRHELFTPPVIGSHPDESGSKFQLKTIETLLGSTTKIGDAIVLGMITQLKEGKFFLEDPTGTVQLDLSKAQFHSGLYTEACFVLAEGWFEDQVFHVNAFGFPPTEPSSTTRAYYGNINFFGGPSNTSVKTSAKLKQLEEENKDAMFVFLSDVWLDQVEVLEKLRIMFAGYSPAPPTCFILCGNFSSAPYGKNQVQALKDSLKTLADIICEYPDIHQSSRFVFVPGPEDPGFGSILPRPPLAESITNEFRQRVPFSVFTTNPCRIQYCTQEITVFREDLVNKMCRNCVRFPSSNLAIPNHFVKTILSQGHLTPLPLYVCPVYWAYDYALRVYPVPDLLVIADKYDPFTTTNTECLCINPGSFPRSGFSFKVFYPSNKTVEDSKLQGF
UniProt Q9H2U2: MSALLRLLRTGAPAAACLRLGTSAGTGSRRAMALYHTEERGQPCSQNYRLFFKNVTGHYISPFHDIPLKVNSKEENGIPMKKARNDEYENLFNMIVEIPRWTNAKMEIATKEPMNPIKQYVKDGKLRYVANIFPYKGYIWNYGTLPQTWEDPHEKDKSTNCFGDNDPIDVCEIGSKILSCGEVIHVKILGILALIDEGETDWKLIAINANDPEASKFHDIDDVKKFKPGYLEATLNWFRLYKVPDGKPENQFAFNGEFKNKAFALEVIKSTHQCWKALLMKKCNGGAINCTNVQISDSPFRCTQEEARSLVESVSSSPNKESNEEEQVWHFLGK
UniProt Q8NBL1: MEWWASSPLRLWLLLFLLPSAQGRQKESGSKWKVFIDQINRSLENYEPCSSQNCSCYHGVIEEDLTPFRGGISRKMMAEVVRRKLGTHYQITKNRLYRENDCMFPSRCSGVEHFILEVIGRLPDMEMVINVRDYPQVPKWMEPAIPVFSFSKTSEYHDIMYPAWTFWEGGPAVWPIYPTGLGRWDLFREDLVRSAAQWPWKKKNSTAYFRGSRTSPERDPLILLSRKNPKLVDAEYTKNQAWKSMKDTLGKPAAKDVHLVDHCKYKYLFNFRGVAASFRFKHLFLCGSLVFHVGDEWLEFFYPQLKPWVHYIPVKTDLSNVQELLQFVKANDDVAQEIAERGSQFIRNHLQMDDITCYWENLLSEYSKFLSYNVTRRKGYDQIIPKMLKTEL
UniProt Q9H307: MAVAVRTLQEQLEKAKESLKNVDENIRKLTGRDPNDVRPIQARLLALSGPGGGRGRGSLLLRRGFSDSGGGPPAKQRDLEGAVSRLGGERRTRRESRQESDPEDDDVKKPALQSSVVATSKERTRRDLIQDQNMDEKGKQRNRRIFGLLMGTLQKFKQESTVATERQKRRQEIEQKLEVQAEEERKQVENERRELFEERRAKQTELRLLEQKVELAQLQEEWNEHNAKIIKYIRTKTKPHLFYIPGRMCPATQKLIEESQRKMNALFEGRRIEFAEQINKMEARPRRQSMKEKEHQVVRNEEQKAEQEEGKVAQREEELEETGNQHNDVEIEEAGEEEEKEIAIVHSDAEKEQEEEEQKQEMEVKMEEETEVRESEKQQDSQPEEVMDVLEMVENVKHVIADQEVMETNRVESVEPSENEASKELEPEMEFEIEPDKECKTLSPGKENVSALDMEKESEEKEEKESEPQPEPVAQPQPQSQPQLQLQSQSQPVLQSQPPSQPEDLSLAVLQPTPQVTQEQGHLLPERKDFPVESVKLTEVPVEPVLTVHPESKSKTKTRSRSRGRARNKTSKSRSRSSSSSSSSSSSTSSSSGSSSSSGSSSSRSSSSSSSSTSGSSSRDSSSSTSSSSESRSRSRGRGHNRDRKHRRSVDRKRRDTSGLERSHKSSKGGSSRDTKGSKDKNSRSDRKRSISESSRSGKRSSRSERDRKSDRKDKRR
UniProt Q9NQ55: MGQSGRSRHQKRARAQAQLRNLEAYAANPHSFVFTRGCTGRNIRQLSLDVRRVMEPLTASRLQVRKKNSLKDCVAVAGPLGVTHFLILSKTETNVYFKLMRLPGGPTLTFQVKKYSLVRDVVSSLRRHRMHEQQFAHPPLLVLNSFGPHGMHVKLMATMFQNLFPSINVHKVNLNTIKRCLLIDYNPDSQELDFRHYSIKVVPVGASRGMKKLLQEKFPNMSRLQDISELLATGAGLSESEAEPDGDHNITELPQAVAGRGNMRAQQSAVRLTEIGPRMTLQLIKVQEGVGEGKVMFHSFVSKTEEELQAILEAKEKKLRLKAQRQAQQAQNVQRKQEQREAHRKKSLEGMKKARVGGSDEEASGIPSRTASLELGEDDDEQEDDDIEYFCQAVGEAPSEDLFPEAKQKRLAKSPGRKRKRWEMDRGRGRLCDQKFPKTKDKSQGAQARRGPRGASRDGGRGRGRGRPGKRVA
UniProt Q14651: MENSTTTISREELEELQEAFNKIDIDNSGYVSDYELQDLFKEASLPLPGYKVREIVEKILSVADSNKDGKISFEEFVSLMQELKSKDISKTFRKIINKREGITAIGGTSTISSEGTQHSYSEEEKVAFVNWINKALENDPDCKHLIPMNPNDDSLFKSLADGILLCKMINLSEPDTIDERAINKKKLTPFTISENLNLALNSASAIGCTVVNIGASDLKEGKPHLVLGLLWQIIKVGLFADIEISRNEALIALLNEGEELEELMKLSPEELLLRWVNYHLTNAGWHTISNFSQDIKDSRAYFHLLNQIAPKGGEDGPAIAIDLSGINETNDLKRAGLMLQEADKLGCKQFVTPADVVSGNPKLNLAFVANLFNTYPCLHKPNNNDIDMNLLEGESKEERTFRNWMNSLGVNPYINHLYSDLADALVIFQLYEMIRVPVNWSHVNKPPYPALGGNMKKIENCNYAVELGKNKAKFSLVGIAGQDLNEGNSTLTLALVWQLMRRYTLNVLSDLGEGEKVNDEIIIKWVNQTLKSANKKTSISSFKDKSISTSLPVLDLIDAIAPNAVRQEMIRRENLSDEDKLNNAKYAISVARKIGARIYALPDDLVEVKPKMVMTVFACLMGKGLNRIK
UniProt Q9BY77: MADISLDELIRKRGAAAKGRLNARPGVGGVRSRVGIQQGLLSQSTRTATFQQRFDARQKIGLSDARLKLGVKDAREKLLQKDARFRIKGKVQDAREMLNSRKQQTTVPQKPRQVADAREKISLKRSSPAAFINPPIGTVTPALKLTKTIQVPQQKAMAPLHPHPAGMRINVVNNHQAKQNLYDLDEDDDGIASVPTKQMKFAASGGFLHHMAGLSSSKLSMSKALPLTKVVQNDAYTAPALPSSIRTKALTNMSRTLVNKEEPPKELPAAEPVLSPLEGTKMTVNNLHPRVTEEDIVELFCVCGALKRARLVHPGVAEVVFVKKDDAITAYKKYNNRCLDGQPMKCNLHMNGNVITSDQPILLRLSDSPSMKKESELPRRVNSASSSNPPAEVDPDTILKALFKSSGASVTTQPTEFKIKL
UniProt Q06203, whole entry, looked up: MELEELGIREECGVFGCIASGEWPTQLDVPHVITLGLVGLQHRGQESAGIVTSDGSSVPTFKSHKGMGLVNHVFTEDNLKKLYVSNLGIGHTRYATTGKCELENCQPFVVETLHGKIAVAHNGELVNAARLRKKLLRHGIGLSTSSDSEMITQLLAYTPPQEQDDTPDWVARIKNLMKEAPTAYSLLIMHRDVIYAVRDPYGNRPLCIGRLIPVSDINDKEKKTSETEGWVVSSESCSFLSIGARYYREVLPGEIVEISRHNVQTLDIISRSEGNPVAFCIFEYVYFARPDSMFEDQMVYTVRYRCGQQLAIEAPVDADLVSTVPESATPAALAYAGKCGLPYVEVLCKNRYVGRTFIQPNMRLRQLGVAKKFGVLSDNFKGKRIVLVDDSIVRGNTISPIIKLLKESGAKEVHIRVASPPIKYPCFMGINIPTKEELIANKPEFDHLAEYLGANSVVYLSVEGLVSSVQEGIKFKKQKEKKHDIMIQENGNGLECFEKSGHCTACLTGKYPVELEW

Columns and labels:
Assay in all cases: log2 fold change, soluble protein after heating vs DMSO (PISA); higher = thermal stabilisation; K562 lysate, 10 uM; active = over 0.2 and 3.5 SD of the protein, either way, in both replicates (recomputed)
alvocidib = compound: CN1CC[C@H](c2c(O)cc(O)c3c(=O)cc(-c4ccccc4Cl)oc23)[C@H](O)C1 [alvocidib]
In short: (§1)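 Dounce homogenisation of K562 pellets in PBS pH 7.4 with 1 mM MgCl2 produced a crude extract, used at 1 mg/mL protein. Exposure to 10 μM compound lasted 30 min, and aliquots were then heated for 3 min across 48°C-58°C, pooled and brought to 0.5% NP-40 at 4°C. The supernatant after 21,000xg for 90 min was quantified by TMTpro 16plex LC-MS/MS with channel sums equalised. Duplicate values are given as log-two fold change in thermal stability relative to solvent controls.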

Tubastatin A = compound: CN1CCc2c(c3ccccc3n2Cc2ccc(C(=O)NO)cc2)C1 [Tubastatin A]
In short: as §1

[1] = compound: CNC(=O)C1=CC=CC=C1NC2=NC(=NC=C2Cl)NC3=C(C=C(C=C3)N4CCOCC4)OC
In short: as §1

defactinib = compound: CNC(=O)c1ccc(Nc2ncc(C(F)(F)F)c(NCc3nccnc3N(C)S(C)(=O)=O)n2)cc1 [defactinib]
In short: as §1

[2] = compound: CNc1nc(-c2ccc3c(N)n[nH]c3c2)cc(N2C[C@@H](C(=O)NC3CCCCC3)CC[C@H]2C)n1
In short: as §1

encorafenib = compound: COC(=O)N[C@@H](C)CNc1nccc(-c2cn(C(C)C)nc2-c2cc(Cl)cc(NS(C)(=O)=O)c2F)n1 [encorafenib]
In short: as §1

[3] = compound: COC(=O)[C@H](CCSC)NC(=O)C1=C(C=C(C=C1)NC[C@H](CS)N)C2=CC=CC=C2
In short: as §1

alisertib = compound: COc1cc(Nc2ncc3c(n2)-c2ccc(Cl)cc2C(c2c(F)cccc2OC)=NC3)ccc1C(=O)O [alisertib]
In short: as §1

[4] = compound: COc1cc2nc(-c3cc(F)ccc3O)nc(N[C@@H]3CNC[C@H]3C(C)(C)O)c2cc1OC
In short: as §1

gefitinib = compound: COc1cc2ncnc(Nc3ccc(F)c(Cl)c3)c2cc1OCCCN1CCOCC1 [gefitinib]
In short: as §1

Measured: log2 fold change

PLEKHM2 (UniProt Q8IWE5)
inactive: alvocidib 0.012 | Tubastatin A 0.083 | [1] 0 | defactinib -0.007 | [2] 0.1 | encorafenib 0.026 | [3] 0.059 | alisertib -0.011 | [4] 0.132 | gefitinib 0.04

PMF1 (UniProt Q6P1K2)
inactive: alvocidib 0.026 | Tubastatin A 0.04 | [1] 0.027 | defactinib 0.009 | [2] -0.017 | encorafenib 0.029 | [3] -0.007 | alisertib 0.034 | [4] -0.013 | gefitinib -0.016

PLXNB2 (UniProt O15031)
inactive: alvocidib 0 | Tubastatin A 0.015 | [1] 0.009 | defactinib 0.002 | [2] 0.027 | encorafenib 0.004 | [3] -0.107 | alisertib 0.017 | [4] 0.054 | gefitinib 0.016

PPFIA1 (UniProt Q13136)
inactive: alvocidib -0.002 | Tubastatin A -0.024 | [1] -0.016 | defactinib 0.003 | [2] -0.005 | encorafenib 0.024 | [3] -0.006 | alisertib -0.003 | [4] -0.03 | gefitinib -0.013

POLD1 (UniProt P28340)
inactive: alvocidib 0.012 | Tubastatin A -0.075 | [1] 0.035 | defactinib 0.027 | [2] 0.011 | encorafenib 0.008 | [3] 0.074 | alisertib 0.007 | [4] 0.007 | gefitinib -0.036

PPCS (UniProt Q9HAB8)
inactive: alvocidib 0.018 | Tubastatin A 0.038 | [1] 0.016 | defactinib -0.075 | [2] -0.056 | encorafenib -0.041 | [3] 0.008 | alisertib -0.02 | [4] -0.029 | gefitinib 0.025

POLR2G (UniProt P62487)
inactive: alvocidib -0.034 | Tubastatin A 0.012 | [1] 0.038 | defactinib 0.027 | [2] 0.019 | encorafenib 0.007 | [3] -0.032 | alisertib 0.016 | [4] 0.017 | gefitinib -0.01

PNISR (UniProt Q8TF01)
inactive: alvocidib -0.027 | Tubastatin A -0.03 | [1] 0.017 | defactinib 0.011 | [2] 0.065 | encorafenib 0.015 | [3] -0.021 | alisertib -0.004 | [4] -0.019 | gefitinib 0.012

POLE2 (UniProt P56282)
inactive: alvocidib 0 | Tubastatin A -0.033 | [1] 0.007 | defactinib 0.026 | [2] -0.015 | encorafenib 0.013 | [3] -0.038 | alisertib -0.042 | [4] 0.174 | gefitinib -0.066

POLA2 (UniProt Q14181)
inactive: alvocidib 0.009 | Tubastatin A -0.029 | [1] -0.021 | defactinib 0.001 | [2] 0.036 | encorafenib 0.046 | [3] 0.007 | alisertib 0 | [4] 0.016 | gefitinib -0.001

PNO1 (UniProt Q9NRX1)
inactive: alvocidib 0.019 | Tubastatin A -0.018 | [1] 0.022 | defactinib -0.019 | [2] 0.016 | encorafenib 0.007 | [3] 0.096 | alisertib 0.015 | [4] 0.004 | gefitinib -0.01

PLRG1 (UniProt O43660)
inactive: alvocidib -0.06 | Tubastatin A 0.055 | [1] 0.011 | defactinib 0.012 | [2] -0.021 | encorafenib 0.067 | [3] -0.003 | alisertib -0.012 | [4] -0.014 | gefitinib -0.012

PNPLA2 (UniProt Q96AD5)
inactive: alvocidib -0.01 | Tubastatin A -0.008 | [1] -0.043 | defactinib -0.021 | [2] 0.045 | encorafenib 0.007 | [3] 0.037 | alisertib -0.003 | [4] -0.023 | gefitinib -0.035

PPA2 (UniProt Q9H2U2)
inactive: alvocidib -0.002 | Tubastatin A 0.031 | [1] -0.006 | defactinib -0.004 | [2] 0.015 | encorafenib -0.014 | [3] -0.004 | alisertib 0.079 | [4] 0 | gefitinib 0.02

PMM2 (UniProt O15305)
inactive: alvocidib -0.013 | Tubastatin A 0.018 | [1] -0.03 | defactinib -0.012 | [2] -0.091 | encorafenib 0.03 | [3] -0.027 | alisertib 0.023 | [4] -0.012 | gefitinib 0.019

POGLUT1 (UniProt Q8NBL1)
inactive: alvocidib 0.022 | Tubastatin A -0.018 | [1] -0.05 | defactinib -0.002 | [2] -0.083 | encorafenib 0.006 | [3] 0.02 | alisertib 0.03 | [4] -0.031 | gefitinib 0.005

POLR3G (UniProt O15318)
inactive: alvocidib -0.028 | Tubastatin A 0.036 | [1] -0.013 | defactinib 0.055 | [2] -0.006 | encorafenib 0.031 | [3] -0.089 | alisertib 0.02 | [4] 0.018 | gefitinib -0.04

2 records picked at random from those above:
POLR3G (UniProt O15318)
inactive: alvocidib -0.028 | Tubastatin A 0.036 | [1] -0.013 | defactinib 0.055 | [2] -0.006 | encorafenib 0.031 | [3] -0.089 | alisertib 0.02 | [4] 0.018 | gefitinib -0.04

PPA2 (UniProt Q9H2U2)
inactive: alvocidib -0.002 | Tubastatin A 0.031 | [1] -0.006 | defactinib -0.004 | [2] 0.015 | encorafenib -0.014 | [3] -0.004 | alisertib 0.079 | [4] 0 | gefitinib 0.02

(list continues)

POLR2E (UniProt P19388)
inactive: alvocidib -0.003 | Tubastatin A 0.004 | [1] 0.002 | defactinib 0.019 | [2] 0.033 | encorafenib 0.007 | [3] 0.11 | alisertib 0.011 | [4] 0.016 | gefitinib -0.03

PMPCA (UniProt Q10713)
inactive: alvocidib -0.006 | Tubastatin A 0.049 | [1] -0.045 | defactinib 0.004 | [2] -0.004 | encorafenib 0.001 | [3] 0.04 | alisertib -0.03 | [4] 0.003 | gefitinib -0.02

POM121 (UniProt Q96HA1)
inactive: alvocidib -0.02 | Tubastatin A 0.087 | [1] 0.08 | defactinib -0.029 | [2] 0.069 | encorafenib 0.082 | [3] -0.014 | [4] 0.051

PLTP (UniProt P55058)
inactive: alvocidib -0.184 | Tubastatin A -0.188 | [1] -0.102 | defactinib -0.318 | [2] -0.11 | alisertib -0.061 | gefitinib -0.013

PNN (UniProt Q9H307)
inactive: alvocidib -0.017 | Tubastatin A 0.08 | [1] 0.041 | defactinib 0 | [2] 0.11 | encorafenib 0.055 | [3] 0.046 | alisertib 0.003 | [4] 0.013 | gefitinib 0.001

PPAN isoform 3 (UniProt Q9NQ55)
inactive: alvocidib -0.019 | Tubastatin A -0.034 | [1] 0.04 | defactinib 0.015 | [2] 0.024 | encorafenib -0.005 | [3] 0.091 | alisertib 0.016 | [4] -0.021 | gefitinib -0.016

PLG (UniProt P00747)
inactive: alvocidib -0.032 | Tubastatin A 0.094 | [1] 0.021 | defactinib -0.017 | [2] -0.03 | encorafenib 0.054 | [3] 0.04 | alisertib 0.05 | [4] 0.088 | gefitinib -0.118

PLS1 (UniProt Q14651)
inactive: alvocidib 0.015 | Tubastatin A 0.049 | [1] 0.045 | defactinib -0.004 | [2] -0.001 | encorafenib -0.007 | [3] -0.022 | alisertib -0.018 | [4] -0.007 | gefitinib 0.016

PNKD (UniProt Q8N490)
inactive: alvocidib 0.062 | Tubastatin A 0.054 | [1] 0.017 | defactinib 0.001 | [2] 0.038 | encorafenib 0.113 | [3] 0.037 | alisertib -0.008 | [4] -0.006 | gefitinib 0.005

POLDIP3 (UniProt Q9BY77)
inactive: alvocidib 0.005 | Tubastatin A -0.027 | [1] 0.093 | defactinib 0.042 | [2] 0.003 | alisertib -0.035 | [4] 0.011 | gefitinib 0.023

PLIN3 (UniProt O60664)
inactive: alvocidib -0.007 | Tubastatin A 0.048 | [1] -0.012 | defactinib 0.035 | [2] 0.004 | encorafenib 0.019 | [3] -0.019 | alisertib -0.003 | [4] 0.016 | gefitinib -0.017

PPAT (UniProt Q06203)
inactive: alvocidib 0.006 | Tubastatin A 0.017 | [1] 0.086 | defactinib -0.032 | [2] 0.029 | encorafenib -0.003 | [3] -0.023 | alisertib -0.024 | [4] 0 | gefitinib -0.018
